The other results are listed elsewhere or left out.

Protein sequences, listed by entry. Tags and fused reporters are not part of them.
UniProt Q0JBA9, entry or part of it: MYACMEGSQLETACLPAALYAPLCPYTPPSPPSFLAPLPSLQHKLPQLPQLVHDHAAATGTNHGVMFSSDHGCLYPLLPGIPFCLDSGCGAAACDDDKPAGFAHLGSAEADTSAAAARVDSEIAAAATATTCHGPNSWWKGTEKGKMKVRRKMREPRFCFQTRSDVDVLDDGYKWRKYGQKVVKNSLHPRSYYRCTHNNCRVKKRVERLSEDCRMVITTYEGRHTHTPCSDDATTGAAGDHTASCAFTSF

This experiment has as its target OsWRKY34 (Oryza sativa, UniProt Q0JBA9 1-250). Briefly: protein-binding microarray (RPBM); PBS, 2% BSA, 51.3 ng/ul salmon testes DNA, 50 uM zinc acetate, 200 nM TF, 25 C, 1 h; high values mean tight binding. The following applies: protein: recombinant; tags: N-terminal polyhistidine and DsRed monomer fusion (pET32a); label: CyDye5-dUTP incorporated in the synthesized complementary strand; 3' TTTTT single-stranded linker to array surface; dsDNA, one strand shown. Summed up: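 Transcription factors were made in E. coli BL21-CodonPlus as N-terminal fusions to a polyhistidine tag and DsRed, then purified on Ni–NTA. After primer extension with Cy5-dUTP and blocking with 2% BSA, a custom Agilent array was exposed for 1 h at 25 °C to 200 nM protein in PBS, 2% BSA, salmon testes DNA and 50 µM zinc acetate. Washed arrays were scanned on an Axon 4000B, and the binding signal is per-feature fluorescence intensity in arbitrary units.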
On to “CTTTGTCCATATGACGTATCCGCAGGGGCAGATCCTCTCTCGGAGTCACCTAGTGCAG”, for which the binding signal was 8060 fluorescence intensity (a.u.).
Next, “AGGTGAACAAAATCGTCTTTGCCTTTCATCACCCTTTACACGGAGTCACCTAGTGCAG”: 8870 fluorescence intensity (a.u.); “GGATAGCTGGGTCCCACGGTAGTAACGGCCGGCTTCACCACGGAGTCACCTAGTGCAG”: 8290 fluorescence intensity (a.u.).
Next, “AGTTGGCTGCTGCTTCTCCTCCTTCCCAGCAGCCATACCACGGAGTCACCTAGTGCAG”: 8940 fluorescence intensity (a.u.); “AATACCTTAAAATCCTTTTATACCGCAGTTACTCAACTTTCGGAGTCACCTAGTGCAG”: 8290 fluorescence intensity (a.u.).
Next, “TAATACTCTTTTCTGTTAACTTCTCTCTTTTTATTTACCACGGAGTCACCTAGTGCAG”: 8520 fluorescence intensity (a.u.).
Take “ATGCCATGTGCTGAGGAACAATCTACTCTACCTGCCGTCGCGGAGTCACCTAGTGCAG”: the binding signal was 8500 fluorescence intensity (a.u.).
Next, “TTTTCCATCACATTAACCTGTCATACACACAAAACTTTTCCGGAGTCACCTAGTGCAG”: 9070 fluorescence intensity (a.u.); “GTTAAATTTGGAGCAGATTGACTTTGACCAAAACTAAAACCGGAGTCACCTAGTGCAG”: 8140 fluorescence intensity (a.u.); “AATATGAGTGTGGTGTTTAGTATGTGAGCATGTGTTTGTTCGGAGTCACCTAGTGCAG”: 10500 fluorescence intensity (a.u.).
On to “AATCCACGCTATCACCATCTCGGATTCTCGATCGAGCCACCGGAGTCACCTAGTGCAG”, for which the binding signal is 9060 fluorescence intensity (a.u.).
As to “TAAAGCCGGCCTGTATATGTTTCTCGTTTATTGATTTAGTCGGAGTCACCTAGTGCAG”, the binding signal is 8780 fluorescence intensity (a.u.).
Next, “ATGAAACTTTTTTATTCGATATCTCTGATGTCTCACCTACCGGAGTCACCTAGTGCAG”: 8370 fluorescence intensity (a.u.).
For “CCTTGTGGGTTTGCCTTGTCGCGCGTGTATGACTGGTAGACGGAGTCACCTAGTGCAG”, the binding signal was 10700 fluorescence intensity (a.u.).
Next, “CGTTCCCAGCTCCACCTCATCATCCATGGCGTCCACCGACCGGAGTCACCTAGTGCAG”: 8500 fluorescence intensity (a.u.).
With “CCTTGTGCCTCCACCACCCCAATTCGAAGCTGTTCCTGACCGGAGTCACCTAGTGCAG”, the binding signal is 12600 fluorescence intensity (a.u.).
Next, “GCATCCATTCCATCCGCTTGTGAGTTGACAGCATCAAAACCGGAGTCACCTAGTGCAG”: 9690 fluorescence intensity (a.u.); “TACTTCACCACTGATCTGAACATGAGATTCACATCGTTCCCGGAGTCACCTAGTGCAG”: 8260 fluorescence intensity (a.u.); “GTTACTGCTTCTATCCATCAGTCCAGCTTAAGCTTAATTACGGAGTCACCTAGTGCAG”: 8080 fluorescence intensity (a.u.).
Regarding “TGTTCATCAGTTCATGAGTTCATCCTTCATCGTAGCACCCCGGAGTCACCTAGTGCAG”, the binding signal was 8650 fluorescence intensity (a.u.).
In the case of “CTCCTCTAATTCATGTATTTTTCCTGTGGTCTAATCAAACCGGAGTCACCTAGTGCAG”, the binding signal is 9610 fluorescence intensity (a.u.).
For the sequence “ATTTAAATTTTCAACCTTAAATTTAGAGTTGACTTTGGTTCGGAGTCACCTAGTGCAG”, the binding signal is 10700 fluorescence intensity (a.u.).
For the sequence “TCCAGCAGCGTCCTCTCCCACAGCTGCACTCCCCATTCATCGGAGTCACCTAGTGCAG”, the binding signal was 10100 fluorescence intensity (a.u.).
With “TGTAGGATCAGTCGCACCATTGATTTTCTCCTTGCTTTTACGGAGTCACCTAGTGCAG”, the binding signal is 12700 fluorescence intensity (a.u.).
Next, “CTTTTACTGACCTTGTTGAATTGAACGCAACAATTTTCTTCGGAGTCACCTAGTGCAG”: 9920 fluorescence intensity (a.u.).
As for “ATGTTGTGCCTGGGGATGCCTAAATTCTGTGCTTGCTTAACGGAGTCACCTAGTGCAG”, the binding signal was 10400 fluorescence intensity (a.u.).
Take “CATCCATCACATATTTTACAGTGTCGCTATTCTCAATTAACGGAGTCACCTAGTGCAG”: the binding signal is 9890 fluorescence intensity (a.u.).
Next, “TCATGGTATGTTAATGATGGGTTCATTTGTATATTCTATCCGGAGTCACCTAGTGCAG”: 10200 fluorescence intensity (a.u.); “CCTCTCATTTTCATCTTCCCATTCTCAACTGCTCTCCTCTCGGAGTCACCTAGTGCAG”: 9880 fluorescence intensity (a.u.); “CGGCGGCGGTGGTGGGGAGGAGGAGGGCCAGCGGCAGCAACGGAGTCACCTAGTGCAG”: 17500 fluorescence intensity (a.u.).
Next, “CACACCACAGCTACTTACCTTGCCCGCCACACACTACACCCGGAGTCACCTAGTGCAG”: 9790 fluorescence intensity (a.u.); “ACAATCCATTTTATTCCAACAGATATATACACGGGGACAACGGAGTCACCTAGTGCAG”: 8410 fluorescence intensity (a.u.).
Next, “ATCCCCACCCCACTACTAGAATTCTTTGCTTCTTGGTGCTCGGAGTCACCTAGTGCAG”: 9620 fluorescence intensity (a.u.).
As for “CATGTAGGGTCCATGTGGGTCTCACTTGCAACGTCAGTTACGGAGTCACCTAGTGCAG”, the binding signal is 8400 fluorescence intensity (a.u.).
Next, “CAAATGGTCAACAGATGTTGATAAAATCCACGCAAAATGTCGGAGTCACCTAGTGCAG”: 10900 fluorescence intensity (a.u.); “AGATTATCTCGCGACAACGTCAATTCAGTAACCACACCCTCGGAGTCACCTAGTGCAG”: 8310 fluorescence intensity (a.u.).
As for “CATGCCACGCGAGATTACATTCTTATTTCCACCTCTCTTCCGGAGTCACCTAGTGCAG”, the binding signal was 9040 fluorescence intensity (a.u.).
Next, “TGTATTGCATCAACTGCCGCCACCGCTCGATATCCAGCTACGGAGTCACCTAGTGCAG”: 14100 fluorescence intensity (a.u.); “TACACTTGTATTCCTATCAGAATCCTATATTTTTTCTATTCGGAGTCACCTAGTGCAG”: 8790 fluorescence intensity (a.u.); “CTTTGCGCCGCCTCCGCCAACAGTCCTGCCACCGCTGCCGCGGAGTCACCTAGTGCAG”: 8680 fluorescence intensity (a.u.).
Next, “TTTGTTCTTGTTTGTTTTCTTCTCCTGACCAGTGTTTTCTCGGAGTCACCTAGTGCAG”: 12900 fluorescence intensity (a.u.); “GTTGTTTATATTTAACGTTTGATCGTTCGTCTTATTTAAACGGAGTCACCTAGTGCAG”: 12500 fluorescence intensity (a.u.).

These data come from PMC7819943, “Rice protein-binding microarrays: a tool to detect cis-acting elements near promoter regions in rice”.
